The nature of this assay: qHTS Assay for Lipid Storage Modulators in Drosophila S3 Cells.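 As to cell number change: cells counted by Cell Tracker Red CMTPX staining in the red channel.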 Conditions: BODIPY lipid droplet fluorescence, 18-24 h; for cell number change: measured here: cell count max response, cells fed with added oleic acid. The method, boiled down:
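Drosophila S3 cells got compounds at several concentrations plus oleic acid (400 uM solution). Laser-scanning cytometry with 488 nm excitation read lipid droplets at 500-530 nm and cells at 575-640 nm. Percent activity was relative to 20 uM Triacsin C.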

The mark [1] stands for this setting: measured here: cell number channel AC50, cells fed with added oleic acid.
Where [2] appears, read: measured here: lipid fluorescence (Fed channel) AC50, cells fed with added oleic acid.

Structures are written as SMILES. Some of the results follow. Further columns of the screen follow, without active or inactive calls. The list favours compounds with an active or inconclusive main result. The note in brackets gives the kind of curve behind each potency; many fits are weak.

In general, AC50 refers to the concentration giving half of the maximal activity seen.

For the compound `N#Cc1ccc(C(=O)Nc2cccc(NC(=O)c3ccco3)c2)c(F)c1`, the cell number change was -50.3%. Moreover, the AC50 under setting [1] is 820 nM [falling, full curve]. Besides, the AC50 under setting [2] was 1300 nM [falling, full curve].
On to `CCNC(=S)NNC(=O)c1ccccn1`, for which the cell number change is -50.9%. For the same compound, under setting [1], the AC50 was 29100 nM [falling, single point]. Besides, under setting [2], the AC50 was 29100 nM [falling, single point].
Turning to `C/C(=N\NC(=O)Cc1ccc(F)cc1)c1ccc(F)cc1`, the cell number change is -31.5%. Moreover, the concentration at half-maximal activity (AC50) under setting [1] was 20600 nM [falling, single point]. Further, the AC50 under setting [2] was 29100 nM [falling, single point].
For `COc1ccccc1C(=O)CSc1nccn1C`, the cell number change is -22.9%. Under setting [2], the half-maximal activity concentration (AC50) was 29100 nM [falling, single point].
Consider `Cc1cccc(C(=O)NCCCNC(=O)c2cccc(C)c2)c1`, for which the cell number change is -32.7%. Further, the concentration at half-maximal activity (AC50) under setting [1] is 32600 nM [falling, single point].
Take `CCn1nc(NS(=O)(=O)c2ccc(NC(C)=O)cc2)c2cc3ccc(C)cc3nc21`: the cell number change came to 41.1%. Also, under setting [1], the half-maximal activity concentration (AC50) was 25900 nM [rising, single point].
As for `O=C(N/N=C/c1ccoc1)c1ccc(Cl)cc1`, the cell number change was -18.4%.
The same measure, in the same setting: next, `CCOC(=O)c1sc(Nc2nc(OC)cc(OC)n2)nc1C`: 1.39%; `Cc1ccsc1C1C2=C(CC(C)(C)CC2=O)Nc2ncnn21` (stereo unspecified): 17.2%.
As to `C=CCn1c(SCC(=O)NCC2CCCO2)nc2scc(-c3ccc(OC)cc3)c2c1=O` (stereo unspecified), the cell number change was -19.4%. Moreover, under setting [2], the AC50 was 6510 nM [falling, single point].
`CC(c1nnnn1C(C)(C)C)N(Cc1cccnc1)Cc1ccccc1Cl` (stereo unspecified): the cell number change came to 27.6%. Further, the concentration at half-maximal activity (AC50) under setting [1] was 651 nM [rising, full curve].
Take `Cc1csc(N/N=C/c2ccc([N+](=O)[O-])cc2)n1`: the cell number change is -18.6%. Further, under setting [2], the AC50 is 731 nM [falling, single point].
As to `CN(C)Cc1cc(C(C)(C)C)cc(C(C)(C)C)c1O`, the cell number change was 20.5%. Also, the half-maximal activity concentration (AC50) under setting [1] is 1160 nM [rising, full curve, poor fit]. For the same compound, the AC50 under setting [2] is 1840 nM [rising, partial curve].
Regarding `CC(C)CNC(=O)c1cccc(NC(=O)CCc2ccccc2)c1`, the cell number change stood at 2.95%. The AC50 under setting [2] is 5.17 nM [rising, full curve, poor fit].
`COc1ccc(C)cc1S(=O)(=O)n1c([N+](=O)[O-])cnc1C`: the cell number change was determined as 28.2%.
With `O=C(NCC(=O)N1CCN(C(=O)c2ccccc2)CC1)c1ccc(Cl)cc1Cl`, the cell number change turned out to be 6.84%. Further, the AC50 under setting [2] was 5170 nM [rising, partial curve].
For `O=C(O)c1ccc2nc(CO)[nH]c2c1`, the cell number change was -38.3%. The half-maximal activity concentration (AC50) under setting [1] is 16400 nM [falling, partial curve]. Further, the AC50 under setting [2] was 461 nM [falling, partial curve, poor fit].
As for `O=C(N/N=C/c1ccccc1C(=O)O)c1cccc(S(=O)(=O)Nc2cc(Cl)ccc2Cl)c1`, the cell number change is 13.8%.
Turning to `CCC(C)NC(=O)c1cccc(OCc2c(C)noc2C)c1` (stereo unspecified), the cell number change was 47.1%. For the same compound, the AC50 under setting [2] was 18400 nM [rising, single point].
As to `COc1ccc2cc(C(=O)N3CCCCCC3)sc(=O)c2c1OC`, the cell number change is -24.3%. For the same compound, under setting [2], the AC50 was 14600 nM [falling, partial curve].
Consider `O=C(NCC(O)c1ccccc1)c1ccc(Cl)c(S(=O)(=O)N2CCCC2)c1` (stereo unspecified), for which the cell number change was 33.3%. Besides, the concentration at half-maximal activity (AC50) under setting [1] was 16400 nM [rising, single point].
With `Cc1sc(NC(=O)c2ccccc2)c(C(=O)N2CCN(C)CC2)c1C`, the cell number change is -24.1%. Moreover, the AC50 under setting [1] was 2590 nM [falling, single point].
As for `COc1ccc(N2CCN(c3ccc(NC(=O)C4CCCCC4)cc3C#N)CC2)cc1`, the cell number change is -147%. In addition, under setting [1], the concentration at half-maximal activity (AC50) was 29100 nM [falling, single point].
Take `CCOC(=O)C1CCCN(S(=O)(=O)c2ccc(Cl)nc2)C1` (stereo unspecified): under setting [1], the half-maximal activity concentration (AC50) is 580 nM [falling, single point].
For the compound `COc1ccc(CCn2c(C3CCCCC3)nc3c(c(=O)c4ccccc4n3C)c2=O)cc1`, the AC50 reads like this: under setting [1], 461 nM [rising, full curve]; under setting [2], 580 nM [rising, full curve].
As for `COC(=O)c1cc2n3ccccc3c(C)c(-c3ccccc3)c-2c1C(=O)OC`, the concentration at half-maximal activity (AC50) under setting [1] was 2910 nM [rising, partial curve] and the half-maximal activity concentration (AC50) under setting [2] was 16400 nM [falling, partial curve].
Turning to `COc1ccc(CCNC(=O)c2ccc3ccccc3n2)cc1OC`, the cell number change amounted to 1.79%. Moreover, the AC50 under setting [1] is 6510 nM [falling, single point].
Turning to `COC(=O)c1ccc(OC)c(CSc2nnc(COc3ccc(OC)cc3)o2)c1`, under setting [2], the AC50 was 29100 nM [rising, single point].
Take `COc1cc(C)ccc1OCCCCNCc1ccccc1`: the cell number change is 3.89%. Further, under setting [2], the AC50 was 731 nM [rising, single point].
On to `C/C(=N\NC(=O)c1ccccc1)c1nc2ccccc2n1C`, for which the cell number change is -2.41%. The AC50 under setting [2] is 164 nM [rising, full curve, poor fit].
With `COCCCN1C(=O)C(=O)/C(=C(/O)c2ccc(OC(C)C)cc2)C1c1ccc(O)c(OC)c1` (stereo unspecified), the cell number change amounted to 5.29%. The AC50 under setting [1] is 651 nM [falling, single point]. The half-maximal activity concentration (AC50) under setting [2] was 580 nM [falling, single point].
Consider `CCOCC(=O)N1CCN(c2ccccc2OC)CC1`, for which the cell number change turned out to be 14.7%.
In the case of `Cc1ccc(-c2nnn(CC(=O)N(Cc3cccs3)C(C(=O)NCC3CCCO3)c3ccco3)n2)o1` (stereo unspecified), the cell number change was -15.2%. Further, the concentration at half-maximal activity (AC50) under setting [2] was 29100 nM [falling, single point].
For the compound `Cc1c(C)n(CC(O)CN2CCCCC2)c2ccccc12` (stereo unspecified), the cell number change was -15.9%.
Take `COc1ccc(CN2CCC(C(=O)N(C)CCc3ccc(OC)c(OC)c3)CC2)c(OC)c1`: the cell number change was -7.94%. In addition, the AC50 under setting [1] is 517 nM [falling, full curve, poor fit].
For `C/C(=N/NS(=O)(=O)c1ccc(C)cc1)c1cccc(NC(=O)c2cccc(Cl)c2)c1`, the cell number change was 96.6%. Moreover, the AC50 under setting [1] is 23100 nM [rising, single point]. In addition, under setting [2], the AC50 was 731 nM [rising, single point].
In the case of `CC1(C)CC(=O)C=C(NCCO)C1`, the cell number change was -3.63%.
With `CC(=O)N1CCN(S(=O)(=O)c2cccc(C(=O)NNC(=O)Cn3nc(C)cc3C)c2)CC1`, the cell number change is -33.8%. Also, the AC50 under setting [1] is 32600 nM [falling, single point]. Also, under setting [2], the AC50 was 731 nM [falling, full curve].
Take `CCOC(=O)c1cccc(NC(=O)C2(S(=O)(=O)c3ccc(C)cc3)CC2)c1`: the cell number change was -2.5%. For the same compound, under setting [2], the AC50 was 1160 nM [falling, single point].

For the origin of these results see PubChem BioAssay AID2685 (National Center for Advancing Translational Sciences (NCATS), 2010).
